From patent US20060051359A1
Results are given in words; binding and its absence hold for the method and conditions named. Some binding calls cover weakened binding; strength is not graded here.

Tests used:
8H9 antigen (human) [1] = molecular target: T1, 8H9 antigen (human) (UniProt Q5ZPR3); assay: 8H9 reactivity by FACS on BT-474 cells
T1 sequence (looked up): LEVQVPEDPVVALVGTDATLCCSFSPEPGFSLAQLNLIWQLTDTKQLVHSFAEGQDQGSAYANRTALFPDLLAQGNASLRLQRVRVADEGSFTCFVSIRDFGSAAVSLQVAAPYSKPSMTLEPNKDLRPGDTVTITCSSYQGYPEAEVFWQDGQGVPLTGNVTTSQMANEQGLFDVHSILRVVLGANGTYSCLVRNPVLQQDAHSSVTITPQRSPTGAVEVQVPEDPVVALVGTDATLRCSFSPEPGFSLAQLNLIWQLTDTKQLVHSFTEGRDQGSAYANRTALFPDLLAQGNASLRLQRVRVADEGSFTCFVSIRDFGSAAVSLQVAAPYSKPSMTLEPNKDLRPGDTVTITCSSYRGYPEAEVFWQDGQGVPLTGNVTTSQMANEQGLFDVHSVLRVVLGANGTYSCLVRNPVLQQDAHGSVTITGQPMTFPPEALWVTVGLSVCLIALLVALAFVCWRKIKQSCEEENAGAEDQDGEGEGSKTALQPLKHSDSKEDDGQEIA

8H9 antigen (human) [2] = molecular target: T1, 8H9 antigen (human); assay: reactivity with MCF-7 cells (FACS, Table 2)
8H9 antigen (human) [3] = molecular target: T1, 8H9 antigen (human); assay: reactivity with breast cancer and osteosarcoma cell lines (FACS, Table 2)
8H9 antigen (human) [4] = molecular target: T1, 8H9 antigen (human); assay: 8H9 reactivity by FACS on NMB-7 cells
8H9 antigen (human) [5] = molecular target: T1, 8H9 antigen (human); assay: 8H9 reactivity by FACS on OHS-M1 cells
8H9 antigen (human) [6] = molecular target: T1, 8H9 antigen (human); assay: 8H9 reactivity by FACS on CRL1427 (MG63) cells
8H9 antigen (human) [7] = molecular target: T1, 8H9 antigen (human); assay: 8H9 reactivity by FACS on LAN-1 cells
8H9 antigen (human) [8] = molecular target: T1, 8H9 antigen (human); assay: 8H9 reactivity by FACS on ZR-75-1 cells
8H9 antigen (human) [9] = molecular target: T1, 8H9 antigen (human); assay: 8H9 reactivity by FACS on MCF-7 cells
8H9 antigen (human) [10] = molecular target: T1, 8H9 antigen (human); assay: 8H9 reactivity by FACS on U2OS cells
8H9 antigen (human) [11] = molecular target: T1, 8H9 antigen (human); assay: 8H9 reactivity by FACS on SK-N-BE(2) cells

Measured: binding

B1: monoclonal antibody 8H9 (antibody, V domains shown)
VH: QVQLQQSGAELVKPGASVKLSCKASGYTFTNYDINWVRQRPEQGLEWIGWIFPGDGSTQYNEKFKGKATLTTDTSSSTAYMQLSRLTSEDSAVYFCARQTTATWFAYWGQGTTVTVSS
VL: DIELTQSPTTLSVTPGDRVSLSCRASQSISDYLHWYQQKSHESPRLLIKYASQSISGIPSRFSGSGSGSDFTLSINSVEPEDVGVYYCQNGHSFPLTFGGGTKLELK
binds: all assays above
